According to PubChem BioAssay AID328 (DTP/NCI, 2004):
The list is a part of this screen's results and no random one: it is rich in T/C values a quarter to a half above the control, in often repeated tests (any T/C) and in doses without a T/C. Further doses and runs are listed elsewhere. T/C is the treated group as % of the vehicle group. Some doses have a count of surviving animals in place of a T/C: the source files T/C as zero there, which appears to mark a toxic dose or a test without result, not a measured value. Some doses without a T/C left all or most animals alive at the check, yet need not have been tolerated: survival well below the control is almost never listed, so the zero probably covers shortened survival too. Survivors were counted at the toxicity check, usually on the fifth day, unless a day is given; later deaths do not show. Schedule codes are those of the source, read here as Q, the interval in days (D) or hours (H), X, the number of doses. Some molecules as drawn cover several salts, stereoisomers or complexes of the source; a dose is that of the sample tested. Some entries hold several experiments; the results are listed from low to high. For survival time, the PubChem record calls one and a half times the control and up active, and a quarter to a half above the control has no call in these data; cut-offs in other NCI protocols can differ. Some T/C values carry the count of animals alive at the toxicity check (mostly the fifth day); where none is given, no animal had died by that day.

Tested on: BDF1 mice, P388 leukemia ip, median survival T/C
Test: NCI In Vivo Anticancer Drug Screen. Data for tumor model P388 Leukemia (intraperitoneal) in B6D2F1 (BDF1) mice
Details: T/C endpoint: median survival time, higher T/C = longer survival
Method in brief: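 Each value expresses how treatment altered survival: treated-mouse outcome over vehicle-mouse outcome, both groups bearing the transplanted tumour.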

[1] = dose: 50.0 mg/kg/injection, schedule: Q01DX009 (ip), vehicle: saline with Tween-80
[2] = dose: 200.0 mg/kg/injection, schedule: Q01DX009 (ip), vehicle: saline with Tween-80
[3] = dose: 100.0 mg/kg/injection, schedule: Q01DX009 (ip), vehicle: saline with Tween-80
[4] = dose: 300.0 mg/kg/injection, schedule: Q01DX009 (ip), vehicle: saline
[5] = dose: 200.0 mg/kg/injection, schedule: Q01DX009 (ip), vehicle: saline

In the case of `COc1ccc(CC2c3cc(OC)c(OC)cc3CCN2C)cc1OC` (stereo unspecified), the survivor count (dose: 12.5 mg/kg/injection, schedule: Q01DX005 (ip), vehicle: saline with Tween-80) is reported as 6 of 6, the survivor count (dose: 25.0 mg/kg/injection, schedule: Q01DX005 (ip), vehicle: saline with Tween-80) is reported as 5 of 6 and the survivor count (dose: 50.0 mg/kg/injection, schedule: Q01DX005 (ip), vehicle: saline with Tween-80) is reported as 4 of 6. For the same molecule, the survivor count (dose: 100.0 mg/kg/injection, schedule: Q01DX005 (ip), vehicle: saline with Tween-80) was 0 of 6 and the survivor count (dose: 200.0 mg/kg/injection, schedule: Q01DX005 (ip), vehicle: saline with Tween-80) was 0 of 6.
For `CCCCCC#CC1OC1(C)C` (stereo unspecified), the T/C [1] was 130 % of control and the survivor count [2] was 4 of 6.
`CNC(=S)N/N=C/c1ccc([N+](=O)[O-])s1` was tested, and the survivor count [1] was 6 of 6, the survivor count [3] was 6 of 6 and the survivor count [2] was 6 of 6.
With `CCN(CC)CCNc1ccc(CO)c2sc3ccccc3c(=O)c12` the T/C (dose: 25.2 mg/kg/injection, schedule: Q01DX009 (ip), vehicle: water) was 142 % of control, the T/C (dose: 36.0 mg/kg/injection, schedule: Q01DX009 (ip), vehicle: water) was 138 % of control and the T/C (dose: 37.5 mg/kg/injection, schedule: Q01DX009 (ip), vehicle: saline) was 137 % of control. For the same molecule, the survivor count (dose: 150.0 mg/kg/injection, schedule: Q01DX009 (ip), vehicle: saline) was 5 of 6 and the survivor count [4] was 4 of 6.
`CCCC(C)(C)c1cc(C(C)C)cc(C(C)(C)CCC)c1O` was tested, and the T/C (dose: 50.0 mg/kg/injection, schedule: Q01DX009 (ip), vehicle: other) was 127 % of control, the survivor count (dose: 100.0 mg/kg/injection, schedule: Q01DX009 (ip), vehicle: other) was 6 of 6 and the survivor count (dose: 200.0 mg/kg/injection, schedule: Q01DX009 (ip), vehicle: other) was 3 of 6.
`O=C(Cn1cc(F)c(=O)[nH]c1=O)c1ccco1` was tested, and the T/C (dose: 400.0 mg/kg/injection, schedule: Q04DX003 (ip), vehicle: saline) was 133 % of control.
For `COc1cc2c(cc1O)C(=O)CCCC2`, the T/C [3] was 135 % of control.
`CNNCc1ccc(C(=O)NC(N)=O)cc1` was tested, and the T/C (dose: 100.0 mg/kg/injection, schedule: Q01DX009 (ip), vehicle: saline) was 125 % of control, the T/C [5] was 148 % of control and the T/C [4] was 138 % of control.
For `O=C1C(=O)c2ccccc2C(O)=C1CC=C(Cl)Cl`, the survivor count (dose: 6.2 mg/kg/injection, schedule: Q01DX009 (ip), vehicle: water) was 10 of 10, the survivor count (dose: 12.5 mg/kg/injection, schedule: Q01DX009 (ip), vehicle: water) was 10 of 10 and the survivor count (dose: 50.0 mg/kg/injection, schedule: Q01DX009 (ip), vehicle: water) was 10 of 10. For the same molecule, the survivor count (dose: 75.0 mg/kg/injection, schedule: Q01DX009 (ip), vehicle: water) was 6 of 10, the survivor count (dose: 100.0 mg/kg/injection, schedule: Q01DX001 (ip), vehicle: water) was 4 of 10 and the survivor count (dose: 100.0 mg/kg/injection, schedule: Q01DX009 (oral), vehicle: water) was 10 of 10. For the same molecule, the survivor count (dose: 100.0 mg/kg/injection, schedule: Q01DX010 (ip), vehicle: saline) was 1 of 6, the survivor count (dose: 100.0 mg/kg/injection, schedule: Q04DX003 (ip), vehicle: water) was 0 of 10 and the survivor count (dose: 200.0 mg/kg/injection, schedule: Q01DX009 (oral), vehicle: water) was 3 of 6 and 10 of 10. For the same molecule, the survivor count (dose: 200.0 mg/kg/injection, schedule: Q01DX010 (oral), vehicle: saline with Tween-80) was 4 of 6, the survivor count (dose: 400.0 mg/kg/injection, schedule: Q01DX001 (oral), vehicle: water) was 1 of 10 and the survivor count (dose: 400.0 mg/kg/injection, schedule: Q01DX010 (oral), vehicle: saline with Tween-80) was 1 of 6.
`C[C@@H]1O[C@@H](O[C@H]2CC[C@]3(C=O)[C@H]4CC[C@]5(C)[C@@H](c6ccc(=O)oc6)CC[C@]5(O)[C@@H]4CC[C@]3(O)C2)[C@H](O)[C@H](O)[C@H]1O[C@@H]1O[C@H](CO)[C@@H](O)[C@H](O)[C@H]1O` was tested, and the survivor count (dose: 10.0 mg/kg/injection, schedule: Q01DX010 (ip), vehicle: carboxymethylcellulose (CMC)) was 1 of 6 and the survivor count (dose: 20.0 mg/kg/injection, schedule: Q01DX010 (ip), vehicle: carboxymethylcellulose (CMC)) was 0 of 6.
`CC(=O)OC1C(=O)C(O)C(C)OC1O[C@@H]1C[C@@]2(C)[C@@H]3CC=C4[C@@H](C[C@H](O)C(=O)C4(C)C)[C@]3(C)C(=O)C[C@]2(C)[C@H]1[C@@](C)(O)C(=O)/C=C/C(C)(C)O` (stereo partly specified) was tested, and the T/C (dose: 0.44 mg/kg/injection, schedule: Q01DX009 (ip), vehicle: saline) was 135 % of control, the T/C (dose: 0.66 mg/kg/injection, schedule: Q01DX009 (ip), vehicle: saline) was 130 % of control and the T/C (dose: 1.0 mg/kg/injection, schedule: Q01DX009 (ip), vehicle: saline) was 125 % of control. The survivor count (dose: 1.0 mg/kg/injection, schedule: Q01DX010 (ip), vehicle: carboxymethylcellulose (CMC)) was 6 of 6, the T/C (dose: 1.5 mg/kg/injection, schedule: Q01DX009 (ip), vehicle: saline) was 135 % of control [5 of 6 alive] and the survivor count (dose: 2.0 mg/kg/injection, schedule: Q01DX010 (ip), vehicle: carboxymethylcellulose (CMC)) was 2 of 6. The survivor count (dose: 4.0 mg/kg/injection, schedule: Q01DX009 (ip), vehicle: saline) was 2 of 6, the survivor count (dose: 4.0 mg/kg/injection, schedule: Q01DX010 (ip), vehicle: carboxymethylcellulose (CMC)) was 0 of 6 and the survivor count (dose: 5.0 mg/kg/injection, schedule: Q01DX010 (ip), vehicle: saline) was 0 of 6. For the same molecule, the survivor count (dose: 10.0 mg/kg/injection, schedule: Q01DX010 (ip), vehicle: saline) was 1 of 6.
`O=C1OC(=Nc2cccc([N+](=O)[O-])c2)c2ccccc21` was tested, and the T/C [3] was 144 % of control.
With `CC(C)(C)OP(=O)(OC(C)(C)C)c1ccccc1` the survivor count [2] was 0 of 6.
In the case of `C=C1C(=O)OC2/C=C(\C)C3(O)C=CC(C)(CC(OC(=O)C(C)C)C12)O3` (stereo unspecified), the survivor count (dose: 20.0 mg/kg/injection, schedule: Q01DX009 (ip), vehicle: saline) is reported as 3 of 6.
With `CC1=Nc2ccccc2N=C(C)C1` the survivor count (dose: 225.0 mg/kg/injection, schedule: Q01DX009 (ip), vehicle: saline with Tween-80) was 3 of 6, the survivor count (dose: 335.0 mg/kg/injection, schedule: Q01DX009 (ip), vehicle: saline with Tween-80) was 1 of 6 and the survivor count (dose: 400.0 mg/kg/injection, schedule: Q04DX003 (ip), vehicle: saline with Tween-80) was 6 of 6.
For `O=C(/C=C/c1ccc2c(c1)OCO2)c1ccccc1`, the survivor count (dose: 200.0 mg/kg/injection, schedule: Q01DX009 (ip), vehicle: Klucel (hydroxypropylcellulose) (HPC)) was 4 of 6.
In the case of `CC([NH-])C(=O)O.CC([NH-])C(=O)O.CC([NH-])C(=O)O.[Co+3]` (stereo unspecified), the survivor count (dose: 200.0 mg/kg/injection, schedule: Q01DX009 (ip), vehicle: water) is reported as 0 of 6 and the survivor count (dose: 400.0 mg/kg/injection, schedule: Q04DX003 (ip), vehicle: water) is reported as 0 of 6.
With `O=C1NCCN1c1cccc([N+](=O)[O-])c1` the survivor count (dose: 100.0 mg/kg/injection, schedule: Q04DX003 (ip), vehicle: Klucel (hydroxypropylcellulose) (HPC)) was 4 of 6.
For `NN(C(=O)c1ccccc1)C1CCCCC1`, the survivor count (dose: 100.0 mg/kg/injection, schedule: Q01DX009 (ip), vehicle: alcohol) was 6 of 6.
With `CC(CCC(C)OS(C)(=O)=O)OS(C)(=O)=O` (stereo unspecified) the survivor count (dose: 8.0 mg/kg/injection, schedule: Q01DX010 (ip), vehicle: saline) was 6 of 6, the T/C (dose: 16.0 mg/kg/injection, schedule: Q01DX010 (ip), vehicle: saline) was 136 % of control and the survivor count (dose: 32.0 mg/kg/injection, schedule: Q01DX010 (ip), vehicle: saline) was 6 of 6.
In the case of `CN(C)N=Nc1ccc(NC(N)=O)cc1`, the T/C (dose: 50.0 mg/kg/injection, schedule: Q04DX003 (ip), vehicle: saline + Tween-80 + alcohol) is reported as 144 % of control, the survivor count (dose: 100.0 mg/kg/injection, schedule: Q04DX003 (ip), vehicle: saline + Tween-80 + alcohol) is reported as 5 of 6 and the survivor count (dose: 200.0 mg/kg/injection, schedule: Q04DX003 (ip), vehicle: saline + Tween-80 + alcohol) is reported as 0 of 6.
In the case of `Cn1c(O)c(C=N)c(=O)[nH]c1=O`, the survivor count [5] is reported as 6 of 6.
For `O=[N+]([O-])c1ccc2c(c1)Cc1cc(Br)ccc1-2`, the survivor count (dose: 200.0 mg/kg/injection, schedule: Q04DX003 (ip), vehicle: Klucel (hydroxypropylcellulose) (HPC)) was 3 of 6.
